{"source": "the supplement of paper PMC8256030", "note": "Several values for one entry are separate records, joined by “and”; a condition that tells them apart may be missing. Identical values can stand only once. Counter-ions that a name gives are not always drawn. Some of the results follow. Repeats in this data set agree poorly, so a single value says little.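 HEK293T cells were given each compound shortly before transfection with a reporter in which red mCherry is followed by the SARS-CoV-2 frameshift element and then GFP in the −1 frame, so GFP appears only after frameshifting.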", "data": [{"test_system": "HEK293T", "assay": "percent viability (nuclei count) relative to control; higher = more viable cells", "details": "10 µM; 24 h", "values": [{"smiles": "NC(=O)N[C@@H](CCC(=O)O)C(=O)O", "percent viability": "41.7%"}, {"smiles": "N#CC(c1ccc(Cl)cc1)c1ccc(-n2ncc(=O)[nH]c2=O)cc1Cl", "note": "(stereo not given) [clazuril]", "percent viability": "110%"}, {"smiles": "COc1ccc2cc3[n+](cc2c1OC)CCc1cc2c(cc1-3)OCO2", "percent viability": "307%"}, {"smiles": "CC/N=C(\\NCC)NCCCC[C@H](NC(=O)[C@H](CC(C)C)NC(=O)[C@@H](CCCCN/C(=N/CC)NCC)NC(=O)[C@H](Cc1ccc(O)cc1)NC(=O)[C@H](CO)NC(=O)[C@@H](Cc1cccnc1)NC(=O)[C@@H](Cc1ccc(Cl)cc1)NC(=O)[C@@H](Cc1ccc2ccccc2c1)NC(C)=O)C(=O)N1CCC[C@H]1C(=O)N[C@H](C)C(N)=O", "note": "[Ganirelix]", "percent viability": "18.4%"}, {"smiles": "CCN1CCCC(OC(=O)C(c2ccccc2)c2ccccc2)C1", "note": "(stereo not given)", "percent viability": "434%"}, {"smiles": "CN(C)CCOC(c1ccccc1)c1ccccc1.Cn1c(=O)c2[nH]c(Cl)nc2n(C)c1=O", "note": "[dimenhydrinate]", "percent viability": "173%"}, {"smiles": "CC(O)CN(CCN(CC(C)O)CC(C)O)CC(C)O", "note": "(stereo not given) [edetol]", "percent viability": "213%"}, {"smiles": "O=C1NCN(c2ccccc2)C12CCN(CCCC(c1ccc(F)cc1)c1ccc(F)cc1)CC2", "note": "[fluspirilene]", "percent viability": "187%"}, {"smiles": "C[C@]12CC[C@H]3C(=CCc4cc(O)ccc43)[C@@H]1CCC2=O", "percent viability": "99.4%"}, {"smiles": "CCOC(=O)c1ncn2c1CN(C)C(=O)c1cc(F)ccc1-2", "note": "[flumazenil]", "percent viability": "282% and 213%"}, {"smiles": "CCC(=O)O[C@H](CC(=O)O)C[N+](C)(C)C", "percent viability": "169%"}, {"smiles": "Cc1ncc2c(c1O)COC2c1ccc(Cl)cc1", "note": "(stereo not given) [cicletanine]", "percent viability": "43.2%"}, {"smiles": "C=C[C@H]1CN2CCC1C[C@H]2[C@H](O)c1ccnc2ccc(OC)cc12", "note": "(stereo not given in full) [Quinine·HCl·2H2O]", "percent viability": "261%"}, {"smiles": "NCCCC[C@H](NC(=O)[C@@H]1CCCN1C(=O)[C@@H]1CSSC[C@H](NC(=O)CNC(=O)CNC(=O)CN)C(=O)N[C@@H](Cc2ccc(O)cc2)C(=O)N[C@@H](Cc2ccccc2)C(=O)N[C@@H](CCC(N)=O)C(=O)N[C@@H](CC(N)=O)C(=O)N1)C(=O)NCC(N)=O", "note": "[terlipressin]", "percent viability": "193%"}, {"smiles": "CN(CCOc1ccc(CC2SC(=O)NC2=O)cc1)c1ccccn1", "note": "(stereo not given) [Rosiglitazone maleate]", "percent viability": "289%"}, {"smiles": "CCCCc1oc2ccccc2c1C(=O)c1cc(I)c(OCCN(CC)CC)c(I)c1", "note": "[amiodarone]", "percent viability": "466% and 362%"}, {"smiles": "CCS(=O)(=O)c1ccc(F)cc1", "note": "[fluoresone]", "percent viability": "208%"}, {"smiles": "Cc1cc(NS(=O)(=O)c2ccc(N)cc2)nc(C)n1", "note": "[sulfisomidine]", "percent viability": "262%"}, {"smiles": "Cc1cc(N)c2cc(NC(=O)Nc3ccc4nc(C)cc(N)c4c3)ccc2n1", "note": "[aminoquinuride]", "percent viability": "424%"}, {"smiles": "CC(C)(C)C(=O)OCOP(=O)(COCCn1cnc2c(N)ncnc21)OCOC(=O)C(C)(C)C", "note": "[Hepsera]", "percent viability": "172%"}, {"smiles": "CN(C)c1cc(NC(=O)CNC(C)(C)C)c(O)c2c1C[C@H]1C[C@H]3[C@H](N(C)C)C(=O)C(C(N)=O)=C(O)[C@@]3(O)C(=O)C1=C2O", "percent viability": "169%"}, {"smiles": "CO/N=C(\\C(=O)N[C@@H]1C(=O)N2C(C(=O)O)=C(CSc3nnnn3C)CS[C@H]12)c1csc(N)n1", "note": "[Cefmenoxime]", "percent viability": "231%"}, {"smiles": "CC1(C)S[C@@H]2[C@H](NC(=O)[C@H](N)c3ccc(O)cc3)C(=O)N2[C@H]1C(=O)O", "note": "[Amoxicillin]", "percent viability": "209%"}, {"smiles": "Nc1nc2c(c(=O)[nH]1)N(C=O)C(CNc1ccc(C(=O)N[C@@H](CCC(=O)O)C(=O)O)cc1)CN2", "note": "(stereo not given in full)", "percent viability": "125%"}, {"smiles": "CCN(CC)CCOc1ccc(C(=C(Cl)c2ccccc2)c2ccccc2)cc1", "note": "[clomifene]", "percent viability": "171% and 339% and 180%"}, {"smiles": "CCC(=O)O[C@H]1[C@H](O[C@@H]2[C@@H](C)[C@H](O[C@H]3C[C@@](C)(OC)[C@@H](O)[C@H](C)O3)[C@@H](C)C(=O)O[C@H](CC)[C@@](C)(O)[C@H](O)[C@@H](C)C(=O)[C@H](C)C[C@@]2(C)O)O[C@H](C)C[C@@H]1N(C)C", "percent viability": "283%"}, {"smiles": "O=C1CCc2cc(OCCCCc3nnnn3C3CCCCC3)ccc2N1", "note": "[cilostazol]", "percent viability": "173%"}, {"smiles": "CN(C)CC/C=C1/c2ccccc2COc2ccc(CC(=O)O)cc21", "note": "[Patanol]", "percent viability": "76.7%"}, {"smiles": "CN(C)CCN(Cc1ccccc1)c1ccccn1", "percent viability": "124%"}, {"smiles": "COc1cc(C(=O)NS(=O)(=O)c2ccccc2C)ccc1Cc1cn(C)c2ccc(NC(=O)OC3CCCC3)cc12", "note": "[zafirlukast]", "percent viability": "241%"}, {"smiles": "Cc1oc(-c2ccccc2)nc1CCC(=O)c1ccc(CC2SC(=O)NC2=O)cc1", "note": "(stereo not given) [darglitazone]", "percent viability": "233%"}, {"smiles": "C[C@H](N[C@@H](CCc1ccccc1)C(=O)O)C(=O)N1CCC[C@H]1C(=O)O", "note": "[enalaprilat]", "percent viability": "112% and 221%"}, {"smiles": "C[C@H](N)[C@H](O)c1cccc(O)c1", "percent viability": "250%"}, {"smiles": "Cc1cc2nc3ccc(=[N+](C)C)cc-3sc2cc1N", "note": "[tolonium chloride]", "percent viability": "191%"}, {"smiles": "CCC(O)(c1ccccc1)c1cccc(C(F)(F)F)c1", "note": "(stereo not given) [flumecinol]", "percent viability": "150%"}, {"smiles": "CN[C@@H]1[C@@H](O)[C@@H](O[C@@H]2[C@@H](O)[C@H](O[C@H]3OC(CN)=CC[C@H]3N)[C@@H](N)C[C@H]2N)OC[C@]1(C)O", "percent viability": "148%"}, {"smiles": "CC(=O)Nc1ccc(OCCOCCOc2ccc(NC(C)=O)cc2)cc1", "note": "[diamfenetide]", "percent viability": "126%"}, {"smiles": "CCCCC/C=C\\C/C=C\\C/C=C\\CCCCC(=O)O", "note": "[gamolenic acid]", "percent viability": "150%"}, {"smiles": "CCCN(CCC)C(=O)C(Cc1ccc(OCCN(CC)CC)cc1)NC(=O)c1ccccc1", "note": "(stereo not given) [tiropramide]", "percent viability": "185%"}, {"smiles": "C[C@@H]1[C@H](O)[C@@H](C)/C=C/C=C/C=C/C=C/C=C/C=C/C=C/[C@H](O[C@@H]2O[C@H](C)[C@@H](O)[C@H](N)[C@@H]2O)C[C@@H]2O[C@](O)(C[C@@H](O)C[C@@H](O)[C@H](O)CC[C@@H](O)C[C@@H](O)CC(=O)O[C@H]1C)C[C@H](O)[C@H]2C(=O)O", "note": "[Fungizone]", "percent viability": "21.7%"}]}]}
